Positions count from the first letter of the chain named. For some assays here: No signal at the amounts used counts as a negative. For some assays here: At least one verdict was read from the data and is not stated in words by the source. Protein sequences can lack the tags named with them. For some assays here: Construct, isoform or probe ends are uncertain for at least one entry. For some assays here: A weaker result is weaker than the reference pair of the same experiment.
Tests used:
[1] = target: T1, Cdc13 (Saccharomyces cerevisiae) (UniProt P32797); test: DMS footprinting; details: plus Est1 100-900 nM, protected G residues exposed at 3' end, dose-dependent; 3'-NH2 on C20; DMS footprint: 50 mM cacodylate pH 7.0, 25 C 10 min, then 0.05% DMS 22 C 15 min; recombinant protein; protein details: 6xHis; label: 5'-32P on T21
T1 sequence (looked up, limits assumed): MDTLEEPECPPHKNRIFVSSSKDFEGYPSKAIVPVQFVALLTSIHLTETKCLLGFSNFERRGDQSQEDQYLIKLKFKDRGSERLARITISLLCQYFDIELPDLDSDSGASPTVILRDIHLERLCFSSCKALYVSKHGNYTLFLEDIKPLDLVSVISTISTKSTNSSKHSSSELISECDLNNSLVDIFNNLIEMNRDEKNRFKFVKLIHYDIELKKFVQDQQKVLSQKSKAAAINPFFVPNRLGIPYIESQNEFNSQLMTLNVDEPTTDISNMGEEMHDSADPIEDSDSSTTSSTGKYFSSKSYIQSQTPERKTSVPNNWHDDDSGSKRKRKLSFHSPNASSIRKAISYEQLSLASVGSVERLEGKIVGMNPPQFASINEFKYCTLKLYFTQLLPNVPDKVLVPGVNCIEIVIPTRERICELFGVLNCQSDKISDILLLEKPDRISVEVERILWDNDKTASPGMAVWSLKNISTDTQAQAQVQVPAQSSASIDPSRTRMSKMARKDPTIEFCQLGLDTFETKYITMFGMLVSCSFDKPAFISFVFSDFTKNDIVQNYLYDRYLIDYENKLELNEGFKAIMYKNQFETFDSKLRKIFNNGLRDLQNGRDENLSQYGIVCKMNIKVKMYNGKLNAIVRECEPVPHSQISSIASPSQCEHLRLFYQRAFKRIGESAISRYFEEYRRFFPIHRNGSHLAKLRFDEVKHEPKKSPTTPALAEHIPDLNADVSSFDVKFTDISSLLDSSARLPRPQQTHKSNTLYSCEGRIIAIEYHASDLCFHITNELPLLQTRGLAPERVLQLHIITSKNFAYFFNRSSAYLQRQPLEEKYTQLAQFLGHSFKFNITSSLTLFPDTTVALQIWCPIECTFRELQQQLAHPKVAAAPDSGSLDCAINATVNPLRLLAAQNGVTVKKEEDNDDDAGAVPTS

[2] = target: T2, Est1 (Saccharomyces cerevisiae) (UniProt P17214); test: DMS footprinting; details: 900 nM Est1 alone, cleavage pattern unchanged; 3'-NH2 on C20; DMS footprint: 50 mM cacodylate pH 7.0, 25 C 10 min, then 0.05% DMS 22 C 15 min; recombinant protein; protein details: 6xHis; label: 5'-32P on T21
T2 sequence (looked up, limits assumed): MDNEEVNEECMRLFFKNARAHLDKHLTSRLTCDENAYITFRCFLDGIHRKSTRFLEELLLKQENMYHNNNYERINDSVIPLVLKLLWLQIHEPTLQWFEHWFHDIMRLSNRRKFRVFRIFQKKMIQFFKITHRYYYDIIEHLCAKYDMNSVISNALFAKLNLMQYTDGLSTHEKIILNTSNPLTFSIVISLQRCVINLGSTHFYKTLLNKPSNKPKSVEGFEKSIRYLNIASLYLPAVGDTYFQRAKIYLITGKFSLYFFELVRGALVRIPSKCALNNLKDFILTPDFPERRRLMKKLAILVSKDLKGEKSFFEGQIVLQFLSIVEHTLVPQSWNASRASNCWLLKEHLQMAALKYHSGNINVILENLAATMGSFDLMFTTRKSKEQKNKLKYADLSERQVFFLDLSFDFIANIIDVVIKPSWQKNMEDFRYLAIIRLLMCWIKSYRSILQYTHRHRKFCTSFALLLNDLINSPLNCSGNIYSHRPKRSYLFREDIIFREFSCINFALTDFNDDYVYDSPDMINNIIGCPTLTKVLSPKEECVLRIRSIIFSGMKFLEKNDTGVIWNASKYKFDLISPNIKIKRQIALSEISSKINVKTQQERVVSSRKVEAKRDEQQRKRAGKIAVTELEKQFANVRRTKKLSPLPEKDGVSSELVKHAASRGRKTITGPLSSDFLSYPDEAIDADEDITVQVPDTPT

[3] = target: T1, Cdc13 (Saccharomyces cerevisiae); test: EMSA; details: plus Est1-TAP 80 or 240 nM, binding slightly decreased; 3'-NH2 on C20; EMSA: room temperature 5 min (30 C in Fig 5E), 30 nM DNA, 6% native gel, buffer not stated; recombinant protein; protein details: 6xHis; label: 5'-32P on T21
[4] = target: T3, Cdc13-BD (Saccharomyces cerevisiae) (UniProt P32797); test: EMSA; details: 20-80 nM protein, 30 nM DNA, 3'-NH2 on C20, EMSA: room temperature 5 min (30 C in Fig 5E), 6% native gel, buffer not stated, recombinant protein, residues 451-693, protein details: 6xHis, label: 5'-32P on T21
T3 sequence (looked up): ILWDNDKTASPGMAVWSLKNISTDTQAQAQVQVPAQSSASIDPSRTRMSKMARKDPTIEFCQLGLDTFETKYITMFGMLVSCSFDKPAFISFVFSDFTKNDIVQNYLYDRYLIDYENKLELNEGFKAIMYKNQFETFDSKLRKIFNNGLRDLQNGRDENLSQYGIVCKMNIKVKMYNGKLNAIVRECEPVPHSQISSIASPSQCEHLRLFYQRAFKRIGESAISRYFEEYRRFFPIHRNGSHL

[5] = target: T4, Cdc13-BD Y522C (Saccharomyces cerevisiae) (UniProt P32797); test: EMSA; details: 20-80 nM protein, 30 nM DNA, 6% native gel, buffer not stated, recombinant protein, residues 451-693, protein details: 6xHis
T4 sequence (looked up): T3 sequence (looked up) with Y72C

[6] = target: T5, Cdc13-BD R635C (Saccharomyces cerevisiae) (UniProt P32797); test: EMSA; details: 20-80 nM protein, 30 nM DNA, 6% native gel, buffer not stated, recombinant protein, residues 451-693, protein details: 6xHis
T5 sequence (looked up): T3 sequence (looked up) with R185C

[7] = 3'-NH2 on C20, EMSA: room temperature 5 min (30 C in Fig 5E), label: 5'-32P on T21
[8] = EMSA: room temperature 5 min (30 C in Fig 5E), label: 5'-32P, single-stranded DNA

Sequence | binding result [1] | binding result [2] | binding result [3] | binding result [4] | binding result [5, 7] | binding result [6, 7] | binding result [5, 8] | binding result [6, 8]
ATGGCTAGGTAGCCGAATTGCGTAGGTGGGTGTGGTGTGTGTGGG / CCCACCTACGCAATTCGGCTACCTAGCCAT [T21/C20 tailed duplex] | binds more weakly | no binding | binds more weakly | binds | no binding | no binding | – | –
ATGGCTAGGTAGCCGAATTGCGTAGGTGGGTGTGGTGTGTGTGGG [T21] | – | – | – | – | – | – | no binding | no binding
